Patent US12540922B2, “Quantitative shotgun proteome, lipidome, and metabolome analysis by direct infusion” (Wisconsin Alumni Research Foundation, priority 2021, dated 2026)
Entries after “also recorded” stand apart in the source; their conditions may differ. At least one compound was matched to its structure with a doubt left.

Experiments:
[1] = system: 293T cells (wild type or PPTC7 knockout); experiment: MitoTox screen: DI-SPA proteome quantification of toxin-treated cells; assay type: cell-based, human; details: DFO 100 μM, 24 hours, WT and PPTC7 KO 293T cells, DMEM or HPLM
Protocol: Wild type or PPTC7 knockout (KO) cells were grown in either standard or modified media, DMEM or HPLM (Cantor et al., Cell, 169, 258-272.e17 (2017)), respectively, and treated in triplicate with one of nine mitochondrial toxins or two controls for a total 132 samples. These conditions were chosen because of their known effects on metabolism and mitochondria, which were hypothesized to induce changes in proteins and thus provide a suitable testbed for DI-SPA. Again, a peptide discovery experiment (like FIG. 7) was first performed to identify peptides for subsequent targeted quantification experiments, in which 1,384 peptides were identified (peptide-level FDR=0.93%) from 451 proteins (protein-level FDR=2.8%). Next, a quantitative targeted DI-SPA assay was generated to expeditiously monitor the most intense peptide from each of the 451 proteins. This method was used to analyze all 132 samples, generating 132 proteotypes and requiring only 120 seconds of MS data collection per sample. A total of 341 out of 451 protein targets were quantified across all 132 samples in only 4.4 hours of total MS data acquisition, which corresponds to over 45,000 proteins quantified at a rate of nearly three proteins per second (FIG. 4, panel B).
MitoTox Experiment—Cell Culture. […] For heavy labeling, 293T cells were labeled using the DMEM-based SILAC protein quantitation kit (Thermo #A33972). […]

glycolysis = details: literature, Oexle et al. 1999; cited from earlier work

## CC(=O)N(O)CCCCCNC(=O)CCC(=O)N(O)CCCCCNC(=O)CCC(=O)N(O)CCCCCN [deferoxamine]
[1]
  change of glycolytic proteins quantified by DI-SPA versus controls: nearly all glycolytic proteins were upregulated
[1]; listed as DFO
  change of glycolytic proteins quantified by DI-SPA versus controls: upregulation of glycolysis; also recorded: almost uniformly upregulated
glycolysis
  effect on glycolysis, previously reported: increase glycolysis
